Values from PubChem BioAssay AID1259308 (NCATS, 2017).
Here is one part, drawn at random, of about 59,000 deposited reagents. About 1,510 of all reagents (2.6%) were called active. 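Calls use total luciferase alone and ignore viability, so some active siRNAs may act by altering cell number.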 A number with no mark means an inactive call. The numbers tell different reagents against one gene apart. Further read-outs or replicates are left out here. Reagent sequences are not shown.

Aim: 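Genes whose loss raises luciferase production in HEK293 cells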 (primary screen)
Cell system: human HEK293 embryonic kidney cells stably expressing firefly luciferase (HEK-CMV-Luc2-Hygro)
Reagents: single siRNA against human genes, 0.8 pmol siRNA per well
Timing: 72 h
Measurement: 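Luciferase light (ONE-Glo) measured on one replicate plate set and viability (CellTiter-Glo) on the other, scaled to a negative control siRNA, with robust z-scores and luciferase per cell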
Scale: total luciferase, z-score: higher = more reporter protein produced
Active means: 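Active when the median/MAD z-score for overall luciferase is greater than 3; a gene was taken forward for validation with new siRNAs if at least two of its three siRNAs passed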
Calls: active = raised luciferase; inactive = no rise

ABCC8 (ATP binding cassette subfamily C member 8) #1 → total luciferase, z-score: -0.206
ABCC8 (ATP binding cassette subfamily C member 8) #2 → total luciferase, z-score: 1
ABCC8 (ATP binding cassette subfamily C member 8) #3 → total luciferase, z-score: 0.456
GLB1 (galactosidase beta 1) #1 → total luciferase, z-score: 0.339
GLB1 (galactosidase beta 1) #2 → total luciferase, z-score: -0.391
GLB1 (galactosidase beta 1) #3 → total luciferase, z-score: -1.31
APOBEC3F (apolipoprotein B mRNA editing enzyme catalytic subunit 3F) #1 → total luciferase, z-score: 0.611
APOBEC3F (apolipoprotein B mRNA editing enzyme catalytic subunit 3F) #2 → total luciferase, z-score: -1.5
APOBEC3F (apolipoprotein B mRNA editing enzyme catalytic subunit 3F) #3 → total luciferase, z-score: -1.36
H3C4 (H3 clustered histone 4) #1 → total luciferase, z-score: 2.01
H3C4 (H3 clustered histone 4) #2 → total luciferase, z-score: 0.971
H3C4 (H3 clustered histone 4) #3 → total luciferase, z-score: 0.303
CETN1 (centrin 1) #1 → total luciferase, z-score: 0.163
CETN1 (centrin 1) #2 → total luciferase, z-score: -0.456
CETN1 (centrin 1) #3 → total luciferase, z-score: -0.56
SGF29 (SAGA complex associated factor 29) #1 → total luciferase, z-score: 1.21
SGF29 (SAGA complex associated factor 29) #2 → total luciferase, z-score: 0.813
SGF29 (SAGA complex associated factor 29) #3 → total luciferase, z-score: 2.34
PPFIBP2 (PPFIB scaffold protein 2) #1 → total luciferase, z-score: -0.398
PPFIBP2 (PPFIB scaffold protein 2) #2 → total luciferase, z-score: -0.622
PPFIBP2 (PPFIB scaffold protein 2) #3 → total luciferase, z-score: 0.374
TDRD10 (tudor domain containing 10) #1 → total luciferase, z-score: -0.0688
TDRD10 (tudor domain containing 10) #2 → total luciferase, z-score: 2.87
TDRD10 (tudor domain containing 10) #3 → total luciferase, z-score: 4.61 (active)
DHH (desert hedgehog signaling molecule) #1 → total luciferase, z-score: -2.29
DHH (desert hedgehog signaling molecule) #2 → total luciferase, z-score: -0.389
DHH (desert hedgehog signaling molecule) #3 → total luciferase, z-score: -0.139
NUAK1 (NUAK family kinase 1) #1 → total luciferase, z-score: 0.129
NUAK1 (NUAK family kinase 1) #2 → total luciferase, z-score: 0.0399
NUAK1 (NUAK family kinase 1) #3 → total luciferase, z-score: -1.35
CIART (circadian associated repressor of transcription) #1 → total luciferase, z-score: 4.04 (active)
CIART (circadian associated repressor of transcription) #2 → total luciferase, z-score: -0.114
CIART (circadian associated repressor of transcription) #3 → total luciferase, z-score: -0.277
